Experimental data as given in the supplement of paper PMC12819154, “High-throughput peptide-centric local stability assay extends protein–ligand identification to membrane proteins, tissues and bacteria” (Nature Structural & Molecular Biology, 2025).
The list shows a part of the results, in another mix than the full data. Most entries show no effect beyond the scatter of the controls.

target: T1, UniProt P0A9T4; test: log2 fold change of tryptic peptide abundance, ligand vs vehicle (limited proteolysis) (log2 ratio); higher = more trypsin-susceptible (destabilized); settings: peptide sequence: EALHDSLKR; peptide start residue: 112; ligand concentration: 5 mM; sample: E. coli desalted lysate; replicate design: treated before aliquoting
T1 sequence (whole entry): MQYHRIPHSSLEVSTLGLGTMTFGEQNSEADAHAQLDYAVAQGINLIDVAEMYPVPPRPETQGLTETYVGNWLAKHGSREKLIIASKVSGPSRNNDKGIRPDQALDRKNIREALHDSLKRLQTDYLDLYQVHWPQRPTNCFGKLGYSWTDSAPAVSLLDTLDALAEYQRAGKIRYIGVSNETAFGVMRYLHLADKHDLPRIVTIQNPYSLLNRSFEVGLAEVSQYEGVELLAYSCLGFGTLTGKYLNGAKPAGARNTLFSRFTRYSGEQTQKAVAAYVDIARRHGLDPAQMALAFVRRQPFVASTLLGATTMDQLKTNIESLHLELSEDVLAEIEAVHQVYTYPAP
Protocol: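 HT-PELSA: desalted E. coli K-12 BW25113 lysate (with 12 mM MgCl2) incubated with 5 mM ATP (pH 7) or water for 30 min at 25 C, then a 4 min trypsin pulse at 22 C. Peptides were quantified by DIA-MS (4 replicates). Value is the peptide log2 fold change (treated/control); negative = stabilized. Scale: negative = ligand-stabilized region.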
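Further: lysate desalted by size exclusion to strip endogenous ATP, peptide intensities built from DIA-NN precursor signals, and peptides missing any value discarded before comparison.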

Row | SMILES | log2 fold change
1 | Nc1ncnc2c1ncn2[C@@H]1O[C@H](COP(=O)(O)OP(=O)(O)OP(=O)(O)O)[C@@H](O)[C@H]1O [adenosine 5'-triphosphate] | -0.61
